These results are taken from publication doi:10.1101/2025.11.20.689565.

These are yes or no findings as the source states them, for the method shown. Sequences can lack the tags named with a protein.

Assay [1] deals with T1, MBP-6His-HA (M6HH)-tagged SPD-5 aa 1-113, not phosphorylated (C. elegans) (UniProt P91349).
T1 sequence: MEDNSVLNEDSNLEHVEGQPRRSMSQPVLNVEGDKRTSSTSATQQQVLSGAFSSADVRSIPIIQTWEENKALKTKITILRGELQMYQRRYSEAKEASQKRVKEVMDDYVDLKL
Description: pull-down; MBP pull-down: purified SPD-5 fragments mixed at 2.0 μM with or without 500 nM PLK1(T194D) in kinase buffer 1 h at 23°C; then 75 nM each with 2 μg anti-MBP antibody in lysis buffer 2 h at 4°C and protein A beads 1 h at 4°C; five washes; immunoblot or Coomassie; both purified.

The target of assay [2] is T1, MBP-6His-HA (M6HH)-tagged SPD-5 aa 1-113, not phosphorylated (C. elegans). Description: SEC-MALS; Superose 6 increase 10/300 or Superdex 200 increase 10/300 in 20 mM Tris-HCl pH 7.5, 50 mM NaCl, 5 mM EGTA, 2 mM MgCl2, 1 mM DTT; 120 μL of ~2.0 mg/ml protein loaded; with or without PLK1 phosphorylation; both purified. A general note: In gel filtration, larger molecules generally elute earlier.

Assay [3] has as its target T2, MBP-6His-HA (M6HH)-tagged SPD-5 aa 1-60, not phosphorylated (C. elegans) (UniProt P91349).
T2 sequence: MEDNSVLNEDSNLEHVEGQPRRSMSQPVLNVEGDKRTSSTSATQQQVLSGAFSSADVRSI
Description: pull-down; MBP pull-down: purified SPD-5 fragments mixed at 2.0 μM with or without 500 nM PLK1(T194D) in kinase buffer 1 h at 23°C; then 75 nM each with 2 μg anti-MBP antibody in lysis buffer 2 h at 4°C and protein A beads 1 h at 4°C; five washes; immunoblot or Coomassie; both purified. (In general: A western blot detects proteins with antibodies after separation by electrophoresis.)

The target of assay [4] is SPD-5 aa 1-200 (taken as MBP-6His-HA-tagged), not phosphorylated (C. elegans) (UniProt P91349). The assay is described as follows: SEC-MALS; Superose 6 increase 10/300 or Superdex 200 increase 10/300 in 20 mM Tris-HCl pH 7.5, 50 mM NaCl, 5 mM EGTA, 2 mM MgCl2, 1 mM DTT; 120 μL of ~2.0 mg/ml protein loaded; with or without PLK1 phosphorylation; both purified.

B1: Halo-tagged SPD-5 aa 200-345, not phosphorylated (domain or fragment, UniProt P91349 200-345)
chain: TSGYEERKINDLEAKLLSEIDKVAELEDHIQQLRQELDDQSARLADSENVRAQLEAATGQGILGAAGNAMVPNSTFMIGNGRESQTRDQLNYIDDLETKLADAKKENDKARQALVEYMNKCSKLEHEIRTMVKNSTFDSSSMLLGG
B1: the binding entry in assay [1] is on record as “no binding (tested: 75 nM)”.

B2: MBP-6His-HA (M6HH)-tagged SPD-5 aa 1-113, not phosphorylated (domain or fragment, UniProt P91349 1-113)
chain: T1 sequence
For the molecule B2, the binding entry in assay [2] is “no binding (tested: ~2.0 mg/ml loaded)”.

B3: untagged SPD-5 aa 101-473, not phosphorylated (domain or fragment, UniProt P91349 101-473)
chain: VKEVMDDYVDLKLGQENVQEKMEQYKLMEEDLLAMQSRIETSEDNFARQMKEFEAQKHAMEERIKELELSATDANNTTVGSFRGTLDDILKKNDPDFTLTSGYEERKINDLEAKLLSEIDKVAELEDHIQQLRQELDDQSARLADSENVRAQLEAATGQGILGAAGNAMVPNSTFMIGNGRESQTRDQLNYIDDLETKLADAKKENDKARQALVEYMNKCSKLEHEIRTMVKNSTFDSSSMLLGGQTSDELKIQIGKVNGELNVLRAENRELRIRCDQLTGGDGNLSISLGQSRLMAGIATNDVDSIGQGNETGGTSMRILPRESQLDDLEESKLPLMDTSSAVRNQQQFASMWEDFESVKDSLQNNHNDTLE
As for B3, the binding entry in assay [3] is listed as “no binding (tested: 75 nM)”.

B4: SPD-5 aa 1-200 (taken as MBP-6His-HA-tagged), not phosphorylated (domain or fragment, UniProt P91349 1-200)
chain: MEDNSVLNEDSNLEHVEGQPRRSMSQPVLNVEGDKRTSSTSATQQQVLSGAFSSADVRSIPIIQTWEENKALKTKITILRGELQMYQRRYSEAKEASQKRVKEVMDDYVDLKLGQENVQEKMEQYKLMEEDLLAMQSRIETSEDNFARQMKEFEAQKHAMEERIKELELSATDANNTTVGSFRGTLDDILKKNDPDFTLT
Consider B4, for which the binding result in assay [4] is listed as “no binding (tested: ~2.0 mg/ml loaded)”.
